Assay results as given in the supplement of paper PMC10849652.
The list shows a part of the results.

Amino acid sequences for entries named in this document (tags omitted). A change or cut given only in a name is not applied to a line headed by its entry.
UniProt Q9H4A6: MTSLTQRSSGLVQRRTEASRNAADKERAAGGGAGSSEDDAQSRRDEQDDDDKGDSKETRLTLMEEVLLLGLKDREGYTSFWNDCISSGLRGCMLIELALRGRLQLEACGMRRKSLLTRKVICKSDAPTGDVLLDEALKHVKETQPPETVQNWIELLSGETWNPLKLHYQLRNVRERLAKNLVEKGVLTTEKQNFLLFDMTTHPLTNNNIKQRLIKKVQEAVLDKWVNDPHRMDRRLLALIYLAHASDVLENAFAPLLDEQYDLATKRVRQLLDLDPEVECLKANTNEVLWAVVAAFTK
UniProt P62879, whole entry, looked up: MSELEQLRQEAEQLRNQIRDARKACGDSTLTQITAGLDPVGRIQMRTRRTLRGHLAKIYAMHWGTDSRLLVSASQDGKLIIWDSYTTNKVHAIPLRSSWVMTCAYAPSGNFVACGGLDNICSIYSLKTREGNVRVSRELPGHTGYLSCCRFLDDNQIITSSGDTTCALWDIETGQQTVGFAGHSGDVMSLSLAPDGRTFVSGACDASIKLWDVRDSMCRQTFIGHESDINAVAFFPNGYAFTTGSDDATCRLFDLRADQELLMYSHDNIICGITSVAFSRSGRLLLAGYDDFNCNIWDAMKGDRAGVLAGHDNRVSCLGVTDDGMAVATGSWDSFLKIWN
UniProt P60983, whole entry, looked up: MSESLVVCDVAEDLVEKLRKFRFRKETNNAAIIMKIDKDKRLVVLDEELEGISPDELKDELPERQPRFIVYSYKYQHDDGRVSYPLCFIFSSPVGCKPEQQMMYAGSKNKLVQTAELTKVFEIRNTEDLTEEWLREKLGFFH
UniProt P49448: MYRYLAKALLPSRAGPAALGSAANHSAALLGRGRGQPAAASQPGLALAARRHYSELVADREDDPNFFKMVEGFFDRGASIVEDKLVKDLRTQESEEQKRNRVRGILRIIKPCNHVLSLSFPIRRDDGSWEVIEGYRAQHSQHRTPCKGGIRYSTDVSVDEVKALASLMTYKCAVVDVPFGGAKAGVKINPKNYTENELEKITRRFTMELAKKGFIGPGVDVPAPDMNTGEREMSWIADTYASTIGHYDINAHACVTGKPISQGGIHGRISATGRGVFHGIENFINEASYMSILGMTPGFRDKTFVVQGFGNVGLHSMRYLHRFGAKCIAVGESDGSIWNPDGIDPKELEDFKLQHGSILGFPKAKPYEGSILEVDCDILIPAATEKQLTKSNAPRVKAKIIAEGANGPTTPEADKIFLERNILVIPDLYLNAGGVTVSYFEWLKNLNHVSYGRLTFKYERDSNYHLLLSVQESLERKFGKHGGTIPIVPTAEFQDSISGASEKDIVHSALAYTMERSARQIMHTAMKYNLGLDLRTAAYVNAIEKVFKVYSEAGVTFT
UniProt P16278: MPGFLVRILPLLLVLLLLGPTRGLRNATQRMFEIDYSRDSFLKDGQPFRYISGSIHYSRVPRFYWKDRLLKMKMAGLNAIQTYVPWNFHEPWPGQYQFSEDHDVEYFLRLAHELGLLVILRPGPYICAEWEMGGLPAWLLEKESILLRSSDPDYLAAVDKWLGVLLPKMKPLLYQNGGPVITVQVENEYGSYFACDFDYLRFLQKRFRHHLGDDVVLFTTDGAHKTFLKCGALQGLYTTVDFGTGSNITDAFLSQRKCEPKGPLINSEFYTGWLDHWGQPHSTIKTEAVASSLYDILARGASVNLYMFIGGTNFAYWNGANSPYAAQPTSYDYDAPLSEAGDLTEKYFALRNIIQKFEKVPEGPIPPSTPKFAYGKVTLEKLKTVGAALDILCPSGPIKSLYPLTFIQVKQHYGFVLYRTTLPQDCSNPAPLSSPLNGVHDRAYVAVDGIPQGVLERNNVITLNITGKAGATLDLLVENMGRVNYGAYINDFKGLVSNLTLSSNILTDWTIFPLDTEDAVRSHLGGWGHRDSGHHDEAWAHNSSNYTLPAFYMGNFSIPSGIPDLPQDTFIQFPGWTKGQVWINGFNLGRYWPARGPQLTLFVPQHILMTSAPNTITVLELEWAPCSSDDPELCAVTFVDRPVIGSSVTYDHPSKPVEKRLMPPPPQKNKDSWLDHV
UniProt Q86UL3: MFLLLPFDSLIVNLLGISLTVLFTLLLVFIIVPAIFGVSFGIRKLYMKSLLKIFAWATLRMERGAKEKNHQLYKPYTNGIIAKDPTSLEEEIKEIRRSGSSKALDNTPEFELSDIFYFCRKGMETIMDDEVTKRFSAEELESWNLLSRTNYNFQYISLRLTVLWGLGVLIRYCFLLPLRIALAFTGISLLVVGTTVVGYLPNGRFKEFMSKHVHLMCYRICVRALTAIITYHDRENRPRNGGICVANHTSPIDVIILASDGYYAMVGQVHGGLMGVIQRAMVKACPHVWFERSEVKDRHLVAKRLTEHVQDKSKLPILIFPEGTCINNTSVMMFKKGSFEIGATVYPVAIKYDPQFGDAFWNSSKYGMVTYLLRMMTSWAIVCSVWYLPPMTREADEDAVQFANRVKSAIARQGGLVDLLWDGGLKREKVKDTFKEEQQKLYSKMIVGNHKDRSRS
UniProt Q8N954: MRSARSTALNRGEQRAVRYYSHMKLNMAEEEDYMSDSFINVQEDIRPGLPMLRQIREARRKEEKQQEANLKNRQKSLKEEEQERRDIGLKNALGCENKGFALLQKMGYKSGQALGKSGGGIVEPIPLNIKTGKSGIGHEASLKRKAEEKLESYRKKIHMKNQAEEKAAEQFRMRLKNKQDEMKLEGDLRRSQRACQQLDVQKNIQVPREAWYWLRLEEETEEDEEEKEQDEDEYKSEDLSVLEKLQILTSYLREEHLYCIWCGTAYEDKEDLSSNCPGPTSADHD
UniProt O76003: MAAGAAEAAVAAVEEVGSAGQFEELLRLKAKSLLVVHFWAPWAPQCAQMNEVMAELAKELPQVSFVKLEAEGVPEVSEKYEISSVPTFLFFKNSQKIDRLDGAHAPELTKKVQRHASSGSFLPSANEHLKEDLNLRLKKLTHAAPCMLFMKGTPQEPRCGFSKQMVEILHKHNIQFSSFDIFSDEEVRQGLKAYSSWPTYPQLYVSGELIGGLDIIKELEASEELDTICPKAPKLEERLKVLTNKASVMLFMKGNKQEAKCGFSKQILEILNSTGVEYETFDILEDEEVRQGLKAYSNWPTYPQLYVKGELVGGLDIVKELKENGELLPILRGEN
UniProt Q9H4G4: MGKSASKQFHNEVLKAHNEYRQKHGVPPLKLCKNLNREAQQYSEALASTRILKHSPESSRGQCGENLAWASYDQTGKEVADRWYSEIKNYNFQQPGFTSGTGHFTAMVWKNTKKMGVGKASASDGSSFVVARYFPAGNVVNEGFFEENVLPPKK
UniProt P63218: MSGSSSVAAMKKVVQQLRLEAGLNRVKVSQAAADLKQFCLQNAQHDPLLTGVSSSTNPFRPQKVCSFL
UniProt Q14789: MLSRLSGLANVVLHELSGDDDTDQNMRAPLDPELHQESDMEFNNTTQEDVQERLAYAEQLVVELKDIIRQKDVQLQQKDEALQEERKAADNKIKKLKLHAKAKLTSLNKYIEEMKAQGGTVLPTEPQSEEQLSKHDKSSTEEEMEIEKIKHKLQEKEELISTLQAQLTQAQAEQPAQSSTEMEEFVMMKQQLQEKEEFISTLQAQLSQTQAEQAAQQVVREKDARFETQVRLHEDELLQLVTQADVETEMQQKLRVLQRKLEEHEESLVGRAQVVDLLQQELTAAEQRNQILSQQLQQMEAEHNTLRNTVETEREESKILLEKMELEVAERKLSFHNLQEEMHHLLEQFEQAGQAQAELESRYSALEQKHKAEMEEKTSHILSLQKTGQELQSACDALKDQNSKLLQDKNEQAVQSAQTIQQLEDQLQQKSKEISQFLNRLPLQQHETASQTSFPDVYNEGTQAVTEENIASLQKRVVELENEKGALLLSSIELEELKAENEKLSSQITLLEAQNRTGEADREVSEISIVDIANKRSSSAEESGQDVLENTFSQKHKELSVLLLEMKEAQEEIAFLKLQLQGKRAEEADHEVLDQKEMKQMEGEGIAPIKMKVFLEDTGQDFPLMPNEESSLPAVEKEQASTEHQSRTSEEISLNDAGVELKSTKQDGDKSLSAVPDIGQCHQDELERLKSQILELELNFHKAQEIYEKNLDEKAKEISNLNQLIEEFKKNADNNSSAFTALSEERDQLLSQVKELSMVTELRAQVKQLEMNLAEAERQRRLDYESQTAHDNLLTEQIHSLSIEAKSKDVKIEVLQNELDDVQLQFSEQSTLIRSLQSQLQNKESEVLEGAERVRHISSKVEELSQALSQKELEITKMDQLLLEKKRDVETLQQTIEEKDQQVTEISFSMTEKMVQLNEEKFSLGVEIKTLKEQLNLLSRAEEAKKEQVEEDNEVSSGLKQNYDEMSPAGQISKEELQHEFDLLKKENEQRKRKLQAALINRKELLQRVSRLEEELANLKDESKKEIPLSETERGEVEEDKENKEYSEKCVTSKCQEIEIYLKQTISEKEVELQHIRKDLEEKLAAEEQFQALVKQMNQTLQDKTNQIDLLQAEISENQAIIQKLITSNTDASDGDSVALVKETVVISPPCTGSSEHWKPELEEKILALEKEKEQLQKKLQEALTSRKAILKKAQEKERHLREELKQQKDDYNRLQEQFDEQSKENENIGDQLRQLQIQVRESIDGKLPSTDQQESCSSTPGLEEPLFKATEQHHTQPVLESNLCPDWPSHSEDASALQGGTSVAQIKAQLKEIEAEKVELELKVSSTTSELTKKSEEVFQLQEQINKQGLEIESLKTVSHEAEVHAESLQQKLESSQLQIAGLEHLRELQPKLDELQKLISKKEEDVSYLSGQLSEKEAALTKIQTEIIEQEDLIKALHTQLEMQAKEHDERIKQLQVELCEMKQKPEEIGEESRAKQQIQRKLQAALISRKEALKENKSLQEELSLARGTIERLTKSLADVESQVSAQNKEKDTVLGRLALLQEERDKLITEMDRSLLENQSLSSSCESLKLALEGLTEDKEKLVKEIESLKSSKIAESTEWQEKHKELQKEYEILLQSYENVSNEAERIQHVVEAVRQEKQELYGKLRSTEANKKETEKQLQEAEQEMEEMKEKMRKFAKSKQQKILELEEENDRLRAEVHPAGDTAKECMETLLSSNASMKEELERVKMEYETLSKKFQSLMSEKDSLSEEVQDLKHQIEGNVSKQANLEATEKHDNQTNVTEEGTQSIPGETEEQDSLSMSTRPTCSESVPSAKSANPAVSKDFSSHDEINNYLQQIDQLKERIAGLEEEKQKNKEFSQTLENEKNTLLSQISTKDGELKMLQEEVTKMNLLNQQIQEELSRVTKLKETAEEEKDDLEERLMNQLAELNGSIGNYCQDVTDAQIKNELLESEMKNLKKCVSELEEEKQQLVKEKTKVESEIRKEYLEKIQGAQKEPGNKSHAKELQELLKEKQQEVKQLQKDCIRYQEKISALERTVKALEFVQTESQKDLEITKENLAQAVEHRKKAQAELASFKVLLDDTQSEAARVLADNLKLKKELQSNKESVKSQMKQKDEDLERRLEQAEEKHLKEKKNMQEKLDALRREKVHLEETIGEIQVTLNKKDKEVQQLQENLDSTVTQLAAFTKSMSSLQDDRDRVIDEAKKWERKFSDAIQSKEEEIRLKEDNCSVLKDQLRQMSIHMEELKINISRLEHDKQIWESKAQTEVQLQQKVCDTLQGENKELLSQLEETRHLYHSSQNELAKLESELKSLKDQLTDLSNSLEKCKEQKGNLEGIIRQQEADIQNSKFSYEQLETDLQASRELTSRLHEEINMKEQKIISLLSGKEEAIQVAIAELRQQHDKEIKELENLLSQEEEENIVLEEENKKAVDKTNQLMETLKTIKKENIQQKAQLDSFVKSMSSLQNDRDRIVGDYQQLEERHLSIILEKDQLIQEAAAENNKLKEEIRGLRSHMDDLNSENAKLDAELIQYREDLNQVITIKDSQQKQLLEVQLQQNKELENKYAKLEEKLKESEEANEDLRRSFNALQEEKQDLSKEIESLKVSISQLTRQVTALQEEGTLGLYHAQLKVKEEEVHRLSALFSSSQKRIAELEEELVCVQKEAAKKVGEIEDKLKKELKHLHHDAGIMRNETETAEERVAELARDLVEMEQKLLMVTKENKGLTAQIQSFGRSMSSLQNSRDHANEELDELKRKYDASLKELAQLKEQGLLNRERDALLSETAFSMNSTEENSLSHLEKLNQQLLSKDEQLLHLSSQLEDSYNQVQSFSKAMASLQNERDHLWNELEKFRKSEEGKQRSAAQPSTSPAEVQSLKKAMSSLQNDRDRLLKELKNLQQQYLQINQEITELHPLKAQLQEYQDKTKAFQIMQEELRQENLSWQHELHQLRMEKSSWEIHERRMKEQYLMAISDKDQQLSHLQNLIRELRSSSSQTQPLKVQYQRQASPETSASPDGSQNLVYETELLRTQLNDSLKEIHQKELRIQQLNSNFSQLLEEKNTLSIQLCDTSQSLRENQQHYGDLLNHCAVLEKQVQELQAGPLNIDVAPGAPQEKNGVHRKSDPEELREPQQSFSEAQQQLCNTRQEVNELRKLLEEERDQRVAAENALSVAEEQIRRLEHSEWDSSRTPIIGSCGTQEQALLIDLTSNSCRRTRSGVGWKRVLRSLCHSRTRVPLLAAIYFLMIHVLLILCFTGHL

Key:
Test in all cases: log2 fold change, soluble protein after heating vs DMSO (PISA); higher = thermal stabilisation; K562 cells, 10 uM, 30 min; active = over 0.2 and 3.5 SD of the protein, either way, in both replicates (recomputed)
[1] = compound: NC(=O)Nc1cc(-c2cccc(F)c2)sc1C(=O)N[C@H]1CCCNC1
How it was run: (§1)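 Values are thermal stability changes relative to control samples and are taken from duplicates. They are stated as log2 fold changes. Before quantification by TMTpro 16plex LC-MS/MS with equalised channel sums, K562 cells at 2×10^6 cells/mL were treated with 10 μM compound for 30 min, heated in aliquots for 3 min across 48°C-58°C, pooled, extracted in PBS with 0.5% NP-40 at 4°C, and centrifuged at 21,000xg for 90 min to give the soluble supernatant.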

[2] = compound: NC(=O)c1cnc(N[C@@H]2CCCC[C@@H]2N)nc1Nc1cccc(-n2nccn2)c1
How it was run: as §1

[3] = compound: NC1(c2ccc(-c3nc4ccn5c(=O)[nH]nc5c4cc3-c3ccccc3)cc2)CCC1
How it was run: as §1

[4] = compound: NCC(=O)Nc1ccc(-n2nc(C(F)(F)F)cc2-c2ccc3c(ccc4ccccc43)c2)cc1
How it was run: as §1

entinostat = compound: Nc1ccccc1NC(=O)c1ccc(CNC(=O)OCc2cccnc2)cc1 [entinostat]
How it was run: as §1

vorinostat = compound: O=C(CCCCCCC(=O)Nc1ccccc1)NO [vorinostat]
How it was run: as §1

citarinostat = compound: O=C(CCCCCCNC(=O)c1cnc(N(c2ccccc2)c2ccccc2Cl)nc1)NO [citarinostat]
How it was run: as §1

silmitasertib = compound: O=C(O)c1ccc2c(c1)nc(Nc1cccc(Cl)c1)c1ccncc12 [silmitasertib]
How it was run: as §1

[5] = compound: O=C1NC(=O)C(c2cnc3ccccn23)=C1c1cn2c3c(cc(F)cc13)CN(C(=O)N1CCCCC1)CC2
How it was run: as §1

[6] = compound: c1cc(OCCN2CCCCC2)cc(-c2n[nH]c3ccc(-c4nnc[nH]4)cc23)c1
How it was run: as §1

entospletinib = compound: c1cn2cc(-c3ccc4cn[nH]c4c3)nc(Nc3ccc(N4CCOCC4)cc3)c2n1 [entospletinib]
How it was run: as §1

| Target | log2 fold change [1] | log2 fold change [2] | log2 fold change [3] | log2 fold change [4] | log2 fold change (entinostat) | log2 fold change (vorinostat) | log2 fold change (citarinostat) | log2 fold change (silmitasertib) | log2 fold change [5] | log2 fold change [6] | log2 fold change (entospletinib) |
| --- | --- | --- | --- | --- | --- | --- | --- | --- | --- | --- | --- |
| GNS (UniProt P15586) | inactive: 0.002 | inactive: 0 | inactive: -0.109 | inactive: 0.01 | inactive: -0.006 | inactive: -0.036 | inactive: 0.019 | inactive: -0.026 | inactive: -0.049 | inactive: 0.003 | – |
| GOLPH3 (UniProt Q9H4A6) | inactive: 0.041 | inactive: -0.082 | inactive: 0.009 | inactive: 0 | inactive: 0.022 | inactive: 0.014 | inactive: 0.071 | inactive: -0.013 | inactive: 0 | inactive: -0.043 | – |
| GNL3 (UniProt Q9BVP2) | inactive: 0.08 | inactive: -0.061 | inactive: -0.098 | inactive: -0.088 | inactive: -0.069 | inactive: -0.131 | inactive: 0.134 | inactive: -0.066 | inactive: -0.027 | inactive: 0.041 | – |
| GLS (UniProt O94925) | inactive: -0.019 | inactive: 0.152 | inactive: -0.157 | inactive: -0.093 | inactive: 0.039 | inactive: 0.022 | inactive: 0.068 | inactive: 0.008 | inactive: -0.193 | inactive: -0.032 | – |
| GNB2 (UniProt P62879) | inactive: -0.073 | inactive: -0.012 | inactive: 0.022 | inactive: -0.014 | inactive: -0.037 | inactive: -0.047 | inactive: -0.01 | inactive: 0.028 | inactive: -0.075 | inactive: -0.049 | – |
| GLS isoform 3 (UniProt O94925) | inactive: -0.133 | inactive: 0.154 | inactive: -0.285 | inactive: 0.01 | inactive: -0.017 | inactive: 0.019 | inactive: 0.169 | inactive: 0 | inactive: -0.24 | inactive: 0.071 | – |
| GP1BB isoform 2 (UniProt P13224) | inactive: -0.042 | inactive: 0.005 | inactive: -0.016 | inactive: -0.005 | inactive: -0.035 | inactive: -0.03 | inactive: -0.045 | inactive: 0.017 | inactive: 0.025 | inactive: 0.101 | inactive: 0.021 |
| GNPAT (UniProt O15228) | inactive: 0.02 | inactive: -0.008 | inactive: -0.066 | inactive: 0 | inactive: 0.021 | inactive: -0.008 | inactive: 0.041 | inactive: -0.041 | inactive: -0.061 | inactive: -0.02 | – |
| GNAS (UniProt Q5JWF2) | inactive: -0.133 | inactive: -0.009 | inactive: 0.002 | inactive: -0.004 | inactive: -0.058 | inactive: -0.022 | inactive: -0.043 | inactive: -0.018 | inactive: -0.007 | inactive: -0.045 | – |
| GPKOW (UniProt Q92917) | inactive: -0.014 | inactive: 0 | inactive: -0.096 | inactive: -0.216 | inactive: 0.042 | inactive: 0.122 | inactive: 0.048 | inactive: -0.078 | inactive: -0.061 | inactive: -0.01 | – |
| GOLIM4 (UniProt O00461) | inactive: 0 | inactive: 0.061 | inactive: -0.134 | inactive: 0.01 | inactive: -0.042 | inactive: -0.083 | inactive: -0.042 | inactive: 0.026 | inactive: -0.05 | inactive: -0.064 | inactive: 0.115 |
| GRPEL1 (UniProt Q9HAV7) | inactive: -0.102 | inactive: -0.053 | inactive: -0.016 | inactive: -0.052 | inactive: 0.024 | inactive: -0.017 | inactive: 0.035 | inactive: -0.016 | inactive: -0.094 | inactive: -0.007 | inactive: -0.018 |
| GPR89A (UniProt B7ZAQ6) | inactive: 0.027 | inactive: -0.063 | inactive: -0.038 | inactive: 0.036 | inactive: 0.039 | inactive: 0.041 | inactive: 0.108 | inactive: -0.016 | inactive: -0.006 | inactive: -0.083 | inactive: -0.011 |
| GMFB (UniProt P60983) | inactive: 0.05 | inactive: 0.012 | inactive: -0.019 | inactive: 0.019 | inactive: -0.003 | inactive: -0.027 | inactive: 0.046 | inactive: -0.026 | inactive: -0.023 | inactive: -0.011 | inactive: -0.011 |
| GLUD2 (UniProt P49448) | inactive: -0.086 | inactive: -0.03 | inactive: -0.006 | inactive: 0.027 | inactive: -0.053 | inactive: -0.051 | inactive: -0.07 | inactive: -0.136 | inactive: -0.008 | inactive: -0.017 | – |
| GPD2 (UniProt P43304) | inactive: -0.022 | inactive: 0 | inactive: -0.042 | inactive: -0.055 | inactive: -0.015 | inactive: -0.056 | inactive: 0.016 | inactive: -0.014 | inactive: -0.003 | inactive: -0.018 | inactive: 0.016 |
| GLB1 (UniProt P16278) | inactive: 0.02 | inactive: 0.002 | inactive: -0.097 | inactive: -0.043 | inactive: 0.01 | inactive: -0.065 | inactive: 0.005 | inactive: 0.021 | inactive: -0.003 | inactive: -0.044 | – |
| GPAT4 (UniProt Q86UL3) | inactive: -0.031 | inactive: 0.002 | inactive: -0.012 | inactive: -0.028 | inactive: -0.107 | inactive: -0.017 | inactive: 0.004 | inactive: -0.005 | inactive: -0.077 | inactive: -0.068 | – |
| GPATCH11 (UniProt Q8N954) | inactive: -0.002 | inactive: 0.013 | inactive: 0.07 | inactive: -0.012 | inactive: -0.069 | inactive: -0.022 | inactive: 0.061 | inactive: 0.043 | inactive: -0.041 | inactive: 0.019 | inactive: -0.112 |
| GLRX3 (UniProt O76003) | inactive: 0 | inactive: -0.057 | inactive: -0.066 | inactive: -0.042 | inactive: 0.022 | inactive: -0.013 | inactive: 0.014 | inactive: 0.034 | inactive: -0.094 | inactive: -0.024 | – |
| GLUD1 (UniProt P00367) | inactive: -0.058 | inactive: -0.014 | inactive: -0.043 | inactive: -0.032 | inactive: -0.051 | inactive: -0.061 | inactive: -0.023 | inactive: -0.095 | inactive: 0.082 | inactive: 0.052 | – |
| GLIPR2 (UniProt Q9H4G4) | inactive: -0.038 | inactive: -0.058 | inactive: -0.101 | inactive: -0.071 | inactive: 0.058 | inactive: 0.032 | inactive: -0.029 | inactive: 0.112 | inactive: -0.017 | inactive: -0.037 | – |
| GNG5 (UniProt P63218) | inactive: -0.029 | inactive: 0.071 | inactive: 0.056 | inactive: 0.086 | inactive: 0.082 | inactive: -0.127 | inactive: -0.021 | inactive: 0.017 | inactive: -0.156 | inactive: -0.057 | – |
| GMEB1 (UniProt Q9Y692) | inactive: 0.066 | inactive: -0.072 | inactive: -0.047 | inactive: 0.027 | inactive: 0.073 | inactive: 0.001 | inactive: 0.057 | inactive: 0.112 | inactive: -0.053 | inactive: -0.004 | – |
| GPX4 (UniProt P36969) | inactive: -0.006 | inactive: 0.079 | inactive: -0.052 | inactive: 0.032 | inactive: -0.107 | inactive: -0.082 | active: -0.391 | inactive: 0.004 | inactive: -0.006 | inactive: -0.049 | – |
| GLCCI1 (UniProt Q86VQ1) | inactive: -0.12 | inactive: 0.03 | inactive: -0.024 | inactive: 0.102 | inactive: 0.056 | inactive: 0.158 | inactive: 0.002 | inactive: -0.042 | inactive: 0.01 | inactive: -0.088 | – |
| GSK3A (UniProt P49840) | inactive: -0.02 | inactive: 0.014 | inactive: -0.054 | inactive: 0.051 | inactive: -0.03 | inactive: -0.053 | inactive: 0.015 | inactive: -0.004 | active: 0.454 | inactive: 0.193 | – |
| GLYR1 (UniProt Q49A26) | inactive: -0.023 | inactive: 0.034 | inactive: -0.032 | inactive: 0.112 | inactive: -0.049 | inactive: 0.027 | inactive: 0.011 | inactive: -0.015 | inactive: -0.009 | inactive: -0.135 | – |
| GOLGB1 isoform 2 (UniProt Q14789) | inactive: 0.106 | inactive: -0.062 | inactive: -0.044 | inactive: 0.026 | inactive: 0.024 | inactive: -0.019 | inactive: -0.008 | inactive: 0.009 | inactive: 0.039 | inactive: 0.167 | – |

Complete entries from above. Values in the order: log2 fold change [1]	log2 fold change [2]	log2 fold change [3]	log2 fold change [4]	log2 fold change (entinostat)	log2 fold change (vorinostat)	log2 fold change (citarinostat)	log2 fold change (silmitasertib)	log2 fold change [5]	log2 fold change [6]	log2 fold change (entospletinib)
GNS (UniProt P15586) reads inactive: 0.002	inactive: 0	inactive: -0.109	inactive: 0.01	inactive: -0.006	inactive: -0.036	inactive: 0.019	inactive: -0.026	inactive: -0.049	inactive: 0.003	–
GMEB1 (UniProt Q9Y692) reads inactive: 0.066	inactive: -0.072	inactive: -0.047	inactive: 0.027	inactive: 0.073	inactive: 0.001	inactive: 0.057	inactive: 0.112	inactive: -0.053	inactive: -0.004	–
